Article PMC4426677, “Tubulin structure-based drug design for the development of novel 4β-sulfur-substituted podophyllum tubulin inhibitors with anti-tumor activity” (Scientific Reports, 2015)

Experiments:
tubulin = assay: Isothermal titration calorimetry (ITC) binding to tubulin; details: for ΔG of binding to tubulin (ITC) / ΔH of binding to tubulin (ITC): low c-value conditions; for increase in affinity of fragment when titrated against tubulin: MP and TG fragments
[1] = test system: human lung adenocarcinoma cell line A549; assay: MTT cytotoxicity assay, A549; type: cell-based; details: for anti-tumor activity against A549 better than that of PTOX: IC50 ratio vs PTOX; for anti-tumor activity against A549 better than that of nocodazole: IC50 ratio vs nocodazole
Procedure: Cytotoxicity assays were performed on the human gastric carcinoma cell line BGC-823, the human lung adenocarcinoma cell line A549, the human hepatocellular liver carcinoma HepG2, and the normal human hepatic immortal cell line HL-7702. Cells (3500–13,000) were seeded into 96-well microtest plates in 100 μL of culture medium per well (Falcon, CA). The cells were treated in triplicate with a gradient concentration of test compounds and incubated at 37 °C in RPMI-1640 with 100 mg L^−1 kanamycin and 10% (v/v) fetal bovine serum in a humidified atmosphere containing 5% CO2 for 48 h. The plating efficiencies of the untreated cells varied between experiments with values ranging from 14 to 31% for the HL-7702 cells. For all cell lines, microculture tetrazolium [3-(4, 5-dimethylthiazol-2-yl)−2, 5-diphenyltetrazolium bromide, MTT; Sigma, St. Louis, MO] assay was performed to measure cytotoxic effects. […] The initial seeding densities varied among the cell lines to ensure a final absorbance reading in control (untreated) cultures within the range of 0.6–0.8 A492 units. […] Each test was performed in triplicate, and the absorbance readings between the triplicates varied by no more than 5%.
Data presented as means ± SD. Statistical analyses were performed by the analysis of variance (ANOVA). All statistical analyses were performed using Origin version 8.0 ([…], OriginLab Corp., Northampton, MA, USA). Sigmoidal dose responses and non-linear regression analyses were undertaken to identify half-maximal concentrations for each of the drugs. To evaluate differences in IC50 concentrations, analysis of variance combined with Tukey’s multiple range test was used.

Structure (SMILES)	ΔG of binding to tubulin (ITC) (tubulin) [kcal/mol]	ΔH of binding to tubulin (ITC) (tubulin) [kcal/mol]	anti-tumor activity against A549 better than that of PTOX [1] [times]	anti-tumor activity against A549 better than that of nocodazole [1] [times]	increase in affinity of fragment when titrated against tubulin (tubulin) [times]
COc1cc(C2c3cc4c(cc3C(Sc3ncnc5nc[nH]c35)C3COC(=O)C23)OCO4)cc(OC)c1OC (stereo not drawn) [Compound 4-MP-PTOX]	-3.4	-7.4	17	24	–
COc1cc(C2c3cc4c(cc3C(Sc3nc(N)nc5nc[nH]c35)C3COC(=O)C23)OCO4)cc(OC)c1OC (stereo not drawn) [Compound 4-TG-PTOX]	-3.1	-5.3	34	47	–
Sc1ncnc2nc[nH]c12 [MP, 6-mercaptopurine, reference compound]	–	–	–	–	1.8
COc1cc([C@@H]2c3cc4c(cc3[C@H](O)[C@H]3COC(=O)[C@H]23)OCO4)cc(OC)c1OC [PTOX, podophyllotoxin, reference compound]	-8.3	-18.9	–	–	–
Nc1nc2nc[nH]c2c(=S)[nH]1 [TG, 6-thioguanine, reference compound]	–	–	–	–	12
